The target of experiment [1] is T1, Spindle-F (Spn-F), overexpressed in S2 cells (Drosophila) (UniProt Q9V9Y9).
T1 sequence: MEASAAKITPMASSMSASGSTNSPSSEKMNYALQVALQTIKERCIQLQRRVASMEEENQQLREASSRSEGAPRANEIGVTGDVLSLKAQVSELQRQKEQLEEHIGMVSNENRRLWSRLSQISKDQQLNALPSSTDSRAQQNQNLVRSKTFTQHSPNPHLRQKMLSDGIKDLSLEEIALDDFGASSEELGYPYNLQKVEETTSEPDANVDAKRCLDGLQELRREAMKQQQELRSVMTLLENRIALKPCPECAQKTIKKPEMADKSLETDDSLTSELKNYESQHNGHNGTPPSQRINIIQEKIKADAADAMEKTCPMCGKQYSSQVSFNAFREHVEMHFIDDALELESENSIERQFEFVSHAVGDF
In words: co-IP; transfected S2 cells lysed in 50 mM Tris-HCl pH 7.5, 150 mM NaCl, 0.5% Triton X-100, 10% glycerol, 1 mM EDTA, 1 mM DTT; anti-HA, anti-GFP or anti-myc beads, 2 h at 4°C.

The target of experiment [2] is T2, Spn-F C1 construct (amino acids 191-273) (Drosophila) (UniProt Q9V9Y9).
T2 sequence: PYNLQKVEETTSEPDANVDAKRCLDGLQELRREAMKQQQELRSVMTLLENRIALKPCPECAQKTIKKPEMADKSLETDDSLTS
The description is as above.

Experiment [3] deals with T3, Spindle-F (Spn-F), endogenous in ovary (Drosophila (endogenous in ovary)) (UniProt Q9V9Y9).
T3 sequence: T1 sequence
The experiment in a line: co-IP; ovary lysates of adult females in lysis buffer; rabbit anti-Spn-F (rabbit anti-GFP as control IgG), 1 h, then Protein G-Sepharose 1 h at 4°C.

Results are given in words; binding and its absence hold for the method and conditions named. In cells and extracts the contact can be indirect. A result given as binding can be weak or reduced; the word gives no strength.

In the case of IKKε::HA (Drosophila) (enzyme), the binding result in experiment [1] and in experiment [2] was “binds” each time.

IKKε::myc (Drosophila) (enzyme): the binding entry in experiment [1] is given as “binds”.

On to “IκB kinase ε (IKKε), endogenous in ovary (Drosophila (endogenous in ovary)) (enzyme)”, for which, in experiment [3], the binding result was “binds”.

The record behind these values is publication PMC4510591.
